PubChem BioAssay AID1259254 – NCATS | 2017

Test: 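Gene knock-downs that lead to re-replication, shown by excess G2 DNA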 (primary screen)
System: human HCT116 colorectal cancer cells
Knock-down reagent: single siRNA against human genes
Duration: 3 days
Detection: 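Nuclei stained with Hoechst and imaged; cell-cycle phase assigned by DNA content; G2 share scaled per plate, non-targeting siRNA 0%, GMNN siRNA 100%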
Direction: G2 robust z-score: higher = more G2 cells, more excess DNA replication
Rule for the call: 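An siRNA counts as active if its G2 robust z-score lies at least 5 MADs above the screen median; here such calls match roughly 38% of GMNN control or more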
The deposit covers about 59,000 reagents; shown is an unselected part. Over the whole deposit, about 1,550 (2.6%) were called active. 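G2 share is only a proxy for re-replication; each gene was hit by three separate siRNAs, and active genes were retested.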 A number with no mark means an inactive call. The numbers tell different reagents against one gene apart. Not all columns of the deposit are shown. No sequences are given here. Not stated in the record: the amount of reagent.

With STK10 (serine/threonine kinase 10) #1, what was measured?
G2 robust z-score: -0.0113

Which result is listed for STK10 (serine/threonine kinase 10) #2?
G2 robust z-score: -1.56

How did the screen score STK10 (serine/threonine kinase 10) #3?
G2 robust z-score: -0.738

With OR4B1 (olfactory receptor family 4 subfamily B member 1) #1, what was measured?
G2 robust z-score: -0.661

For OR4B1 (olfactory receptor family 4 subfamily B member 1) #2, what was measured?
G2 robust z-score: 0.796

What did the screen give for OR4B1 (olfactory receptor family 4 subfamily B member 1) #3?
G2 robust z-score: -0.158

What is on record for ADAM19 (ADAM metallopeptidase domain 19) #1?
G2 robust z-score: 2.16

With ADAM19 (ADAM metallopeptidase domain 19) #2, what does the deposit list?
G2 robust z-score: -0.743

With ADAM19 (ADAM metallopeptidase domain 19) #3, how do the results read?
G2 robust z-score: 0.664

What is on record for AACS (acetoacetyl-CoA synthetase) #1?
G2 robust z-score: -0.594

For AACS (acetoacetyl-CoA synthetase) #2, what does the deposit list?
G2 robust z-score: -0.0735

What did the screen give for AACS (acetoacetyl-CoA synthetase) #3?
G2 robust z-score: -0.773

With C6orf52 (chromosome 6 open reading frame 52) #1, what was measured?
G2 robust z-score: -0.0978

Which result is listed for C6orf52 (chromosome 6 open reading frame 52) #2?
G2 robust z-score: 0.126

What did the screen give for C6orf52 (chromosome 6 open reading frame 52) #3?
G2 robust z-score: -1.1

With FBXO21 (F-box protein 21) #1, how do the results read?
G2 robust z-score: -1.37

For FBXO21 (F-box protein 21) #2, how do the results read?
G2 robust z-score: 2.57

Which result is listed for FBXO21 (F-box protein 21) #3?
G2 robust z-score: 0.945

Taken from above:
FBXO21 (F-box protein 21) #2, G2 robust z-score → 2.57
Under “G2 robust z-score”, AACS (acetoacetyl-CoA synthetase) #3 reads -0.773
C6orf52 (chromosome 6 open reading frame 52) #1, G2 robust z-score → -0.0978
